# Test results: PubChem BioAssay AID1347076 (National Center for Advancing Translational Sciences (NCATS), 2019)
# Out of some 400,000 compounds screened, about 13,000 (3.2%) were called active. Inconclusive means that the source gave no clear call. Such entries were picked first, then a sample of the others. The call rests on the fitted dose curve; in most records, active means well fitted cell-killing curve with a large enough effect; inconclusive means small, poorly fitted or top-dose-only effect, or effect the other way; inactive means flat fitted curve, though single readings scatter. A potency beside an inconclusive call is a rough fit, not a confirmed value.
# Test: qHTS assay for MDR1-selective chemotherapeutics: Primary screen using the drug-selected MDR subline cells KB-V1; further: nearly all actives have a fitted effect of over 60% in size
# Conditions: KB-V1 MDR cells viability, CellTiter-Glo, 72 h; activity change, negative = cytotoxicity: at 46.1 µM (top of the series)
# How it was run: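 Cytotoxicity via CellTiter-Glo luminescence after 72 h compound exposure at 37 degrees C. Cells: drug-selected KB-V1 line, DMEM phenol-red free plus 10% FBS. Compounds tested at multiple concentrations; normalized data fitted to concentration-effect curves.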
# On the % scale 0 is the no-effect control and ±100 the full control effect; potency means the concentration at half of the fitted maximal effect.
SMILES,Potency,"activity change, negative = cytotoxicity"
COc1ccccc1N1C(=O)C2C(C(=O)c3ccccc3)=NN(c3ccc(Br)cc3)C2C1=O (configuration not stated),"inconclusive: 23.1 µM [rising, partial curve, poor fit]",
COc1ccc(NS(=O)(=O)c2cc(-c3cnc(C4CC4)o3)ccc2C)cc1,"inconclusive: 23.1 µM [cytotoxic, partial curve, poor fit]",
O=C(NC1(C(F)(F)F)N=C(c2ccccc2)N(C2CCCCC2)C1=O)c1ccccc1F (configuration not stated),"inconclusive: 7.31 µM [cytotoxic, partial curve, poor fit]",
Cc1ccccc1C(=O)NCCNC(=O)c1ccccn1,"inconclusive: 16.4 µM [rising, single point]",
Cc1ccc(P(=O)(O)c2ccc(C)cc2)cc1,inactive,
CCOc1c2ccc(C(=O)NCc3cc(C(F)(F)F)cc(C(F)(F)F)c3)cc2nn1CCOC,inactive,
Cc1ccc(NC(=O)N2CCc3c([nH]c4ccccc34)C2c2ccccc2F)c(Cl)c1 (configuration not stated),"inconclusive: 29.1 µM [cytotoxic, single point]",
CCn1nc(C)c(CN2CCCCC2C(=O)Nc2ccc(Oc3cccnc3)cc2)c1C (configuration not stated),"inconclusive: 8.2 µM [cytotoxic, partial curve, poor fit]",
CCOc1ccc2[nH]c(=O)c(CN(CCN3CCCC3)C(=S)Nc3ccccc3OCC)cc2c1,inactive,
CC1CCCC/C1=N\NS(=O)(=O)c1ccc(Br)cc1 (configuration not stated),"inconclusive: 5.17 µM [rising, partial curve]",
CC(C)c1ccc(S(=O)(=O)N2CCN(C(C)C(=O)NC3CCCC3)CC2)cc1 (configuration not stated),"inconclusive: 29.1 µM [cytotoxic, single point]",
CC(Sc1ncnc2ccccc12)C(=O)Nc1ccc2c(c1)OCCO2 (configuration not stated),"inconclusive: 18.4 µM [cytotoxic, partial curve]",
CN(C(=O)COC(=O)c1c2c(nc3ccccc13)CCCC2)c1c(N)n(Cc2ccccc2)c(=O)[nH]c1=O,inactive,
Cn1c(SCc2ccccn2)nc2c1c(=O)[nH]c(=O)n2C,"inconclusive: 16.4 µM [rising, single point]",
Cc1c(Cc2ccccc2)sc(NC(=O)C(C)(C)C)c1C(N)=O,"inconclusive: 23.1 µM [cytotoxic, partial curve]",
Cc1ccc(NC(=O)c2ncn(CCCNCc3ccccn3)n2)cc1C,inactive,
Cc1ccc(C(C)C)cc1OCC(=O)Nc1nnc(C2CC2)s1,"inconclusive: 7.31 µM [cytotoxic, partial curve, poor fit]",
CC(=O)Nc1nc(C)c(-c2csc(Nc3cccc([N+](=O)[O-])c3)n2)s1,,inconclusive: -34.1% [cytotoxic]
CCOC(=O)Cc1csc(N/N=C/c2cccc([N+](=O)[O-])c2)n1,inactive,
C[C@H](CO)N1C[C@H](C)[C@H](CN(C)S(=O)(=O)c2ccccc2)OCc2cnnn2CCCC1=O,,inconclusive: 7.23%
COc1ccc(C(=O)NCCc2ccccn2)cc1S(=O)(=O)Nc1ccc(Br)cc1,"inconclusive: 14.6 µM [cytotoxic, partial curve]",
COC(=O)c1c(NC(=O)CCCOc2ccccc2C)sc2c1CCC2,inactive,
C[C@@H]1CN([C@H](C)CO)C(=O)CCCn2nncc2CO[C@@H]1CN(C)C(=O)CCC(F)(F)F,inactive,

SMILES,Potency,"activity change, negative = cytotoxicity"
Cc1cccc(-c2n[nH]nc2C2=CC(=O)CC(C)(C)C2)c1,"inconclusive: 29.1 µM [cytotoxic, single point]",
COc1c2n(C)ccc3c-2n(c(=O)c1=O)c1ccccc31,"inconclusive: 25.9 µM [rising, single point]",
O=C(c1ccc(NS(=O)(=O)c2ccc(F)cc2)cc1)N1CCC1,inactive,
COCCn1c(=S)[nH]c2cc(C(=O)N(CCO)Cc3ccccc3)ccc2c1=O,"inconclusive: 20.6 µM [rising, single point]",
Cc1ccc(NC(=O)c2nc[nH]c2C(=O)N[C@@H](CCCCNC(=O)OC(C)(C)C)C(=O)OC(C)(C)C)cc1,"inconclusive: 29.1 µM [cytotoxic, single point]",
O=C(c1cccc(S(=O)(=O)N2CCc3ccccc32)c1)N1CCCC(C(F)(F)F)C1 (configuration not stated),"inconclusive: 9.2 µM [cytotoxic, partial curve]",
CCN(CC)C1=N/C(=C\c2ccc(OC)cc2)C(=O)N1c1ccccc1,active: 8.2 µM,
Cc1ccc([C@@H]2CC=C(C(=O)O)[C@H](c3ccc(Cl)cc3)N2S(=O)(=O)c2ccccc2C)cc1,inactive,
COc1ccc(Br)cc1/C=N/NC(=O)CNC(=O)C1COc2ccccc2O1 (configuration not stated),"inconclusive: 0.0326 µM [cytotoxic, full curve]",
COc1ccc(C2(c3ccc(OC)cc3)NC(=O)NC2=O)cc1,inactive,
CN1CCN(c2ccc(S(=O)(=O)N3CCOCC3)cc2NC(=O)CSCc2ccccc2)CC1,inactive,
COc1ccc(CCN=C2SCC(=O)N2Cc2ccccc2)cc1OC,"inconclusive: 9.2 µM [cytotoxic, partial curve]",
COc1cc(NS(=O)(=O)c2ccc(NC(=O)c3cccnc3)cc2)ncn1,"inconclusive: 11.6 µM [rising, partial curve]",
Clc1ccc(C(c2cccs2)N2CCNCC2)cc1 (configuration not stated),"inconclusive: 29.1 µM [cytotoxic, single point]",
CCCCS(=O)(=O)N1CCCC(C(=O)Nc2ccc3c(c2)CCC3)C1 (configuration not stated),"inconclusive: 10.3 µM [cytotoxic, partial curve]",
CCCn1c(CC)nc([N+](=O)[O-])c1Sc1ncn[nH]1,inactive,
CC(=O)C1=C(O)CC(c2ccccc2)CC1=NCCc1ccccc1 (configuration not stated),"inconclusive: 7.31 µM [cytotoxic, partial curve]",
CCOC(=O)CC[C@H](NC(=O)Cn1cc(C)c(=O)[nH]c1=O)C(=O)OCC,inactive,
CCN(CC(=O)NCc1ccc(F)cc1)C(=O)c1ccc(C(=O)c2ccccc2)cc1,"inconclusive: 29.1 µM [cytotoxic, single point]",
CC(C)(C)CC(C)(C)NC1=CC(=O)OC12CCCCC2,"inconclusive: 14.6 µM [cytotoxic, partial curve, poor fit]",
COc1c(C)cc(C(O)c2ncc(-c3ccccc3C(F)(F)F)[nH]2)cc1C (configuration not stated),active: 18.4 µM,
Cc1ccccc1C(C)(O)c1cnc(C)n1Cc1ccccc1 (configuration not stated),"inconclusive: 16.4 µM [cytotoxic, single point]",
CCCCNC(=O)c1nc(-c2ccc(C(F)(F)F)cc2)oc1-c1ccccc1,"inconclusive: 6.51 µM [cytotoxic, partial curve, poor fit]",

SMILES,Potency,"activity change, negative = cytotoxicity"
Cc1ccc(NC(=O)C2=C(O)CCn3c2nc2ccccc23)cc1,inactive,
O=C(Nc1ccc(O)c(-c2nc3ccccc3s2)c1)c1cc(=O)c2ccccc2o1,inactive,
CCOC(=O)c1cnc2c(C)cc(C)cc2c1Nc1ccc(N2CCOCC2)cc1,"inconclusive: 2.31 µM [cytotoxic, partial curve, poor fit]",
Nc1ccn([C@@H]2O[C@H](C(=O)Nc3ccc(Oc4ccccc4)nc3)[C@@H](O)[C@H]2O)c(=O)n1,inactive,
CCC(C)(C)NC(=O)c1ccc2c(c1)OCCO2,inactive,
CCCCCCN1C[C@@H](n2cc(C3CC3)nn2)[C@H](O)C[C@@H]1c1ccc(OC)cc1,"inconclusive: 20.6 µM [cytotoxic, partial curve, poor fit]",
Cc1cccc(NC(=O)c2ccc(NS(=O)(=O)c3cccc4cccnc34)cc2)c1,inactive,
COc1ccc(/C=C/C(=O)OCC(=O)N2CCc3ccccc32)cc1,"inconclusive: 29.1 µM [rising, single point]",
CN(Cc1ccccc1)C(=O)c1ccc2c(c1)N(Cc1ccc(Cl)cc1)C(=O)c1ccccc1S2=O (configuration not stated),"inconclusive: 29.1 µM [cytotoxic, single point]",
O=C(c1cccc(N2C(=O)C3C4C=CC(C4)C3C2=O)c1)N1CCN(c2ccccc2Cl)CC1 (configuration not stated),inactive,
Cc1cccc(NC(=S)N/N=C(\c2ccccc2)C(C)C)c1,inactive,
COc1ccc(Cn2c(C3CCCCC3)nc3c(c(=O)c4ccccc4n3C)c2=O)cc1,"inconclusive: 6.51 µM [cytotoxic, full curve]",
O=C(c1ccc2ccccc2n1)N1CCN(c2ccccc2)CC1,"inconclusive: 29.1 µM [cytotoxic, single point]",
O=C(CSc1nnc(SCc2ccccc2)s1)N/N=C/C=C\c1ccco1,"inconclusive: 29.1 µM [rising, single point]",
O=c1c2ccccc2n2c(-c3cccc(F)c3)nnc2n1Cc1ccccc1,"inconclusive: 1.84 µM [cytotoxic, full curve, poor fit]",
COCC1CCCN(C(=O)c2cc(COc3cccc4cccnc34)on2)C1 (configuration not stated),"inconclusive: 10.3 µM [cytotoxic, partial curve]",
O=C(NCc1nnc(SCc2ccc(F)cc2)n1-c1ccc(F)cc1)C12CC3CC(CC(C3)C1)C2,"inconclusive: 25.9 µM [cytotoxic, single point]",
O=[N+]([O-])/C=C\c1ccc(N2CCOCC2)cc1,"inconclusive: 16.4 µM [cytotoxic, single point]",
CCc1ccccc1N1CC(c2nc3ccccc3n2CCC2CCCCC2)CC1=O (configuration not stated),"inconclusive: 18.4 µM [cytotoxic, partial curve]",
C#Cc1ccc(NC(=O)C2(C)CCN2C(=O)C2(c3ccccc3)CCCC2)cc1 (configuration not stated),"inconclusive: 8.2 µM [cytotoxic, partial curve]",
Cc1cccc(-n2cc(CN3CCCN(C=O)CC3)c(-c3cccc(F)c3)n2)c1,"inconclusive: 23.1 µM [cytotoxic, single point]",
